Source: patent US20180298401A1 (CORNELL UNIVERSITY, published 2018)
These are yes or no findings as the source states them, for the method shown. Some binding calls cover weakened binding; strength is not graded here.

Amino acid sequences for entries named in this document (tags omitted). A change or cut given only in a name is not applied to a line headed by its entry. Residues count along the entry.
UniProt Q31NB2: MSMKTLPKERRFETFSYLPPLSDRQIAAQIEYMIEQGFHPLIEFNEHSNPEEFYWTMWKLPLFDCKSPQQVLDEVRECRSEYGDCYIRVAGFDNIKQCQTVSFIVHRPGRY
UniProt P69249, residues 58-180: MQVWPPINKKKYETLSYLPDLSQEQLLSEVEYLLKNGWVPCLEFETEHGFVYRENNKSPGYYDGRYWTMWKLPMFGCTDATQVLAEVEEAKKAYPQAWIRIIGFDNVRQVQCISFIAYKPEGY

Target: Rubisco from the cyanobacterium Synechococcus elongatus PCC7942 (hexadecameric holoenzyme of eight LSU and eight SSU), expressed in tobacco chloroplasts (Synechococcus elongatus PCC7942) (UniProt Q31NB3+Q31NB2)
Assay: TEM with immunogold labelling of SeLSM35 and SeLSYM35 leaf sections

- binding: binds
Substance: Tobacco Rubisco small subunit (SSU) (from UniProt P69249 58-180) (enzyme)
